Experimental data from publication PMC3349749.
Substitutions are numbered along the chain they refer to. No constants are given. Whether binding was seen depends on the method and setting. For some assays here: In cells and extracts the contact can be indirect. Some results given as binding are weak or reduced against the parent protein; the word gives no strength. Tags and fused reporters may be left off the sequences shown.

T1: Flag-tagged CSN-5 (N. crassa) (UniProt Q7RXX8)
T1 sequence: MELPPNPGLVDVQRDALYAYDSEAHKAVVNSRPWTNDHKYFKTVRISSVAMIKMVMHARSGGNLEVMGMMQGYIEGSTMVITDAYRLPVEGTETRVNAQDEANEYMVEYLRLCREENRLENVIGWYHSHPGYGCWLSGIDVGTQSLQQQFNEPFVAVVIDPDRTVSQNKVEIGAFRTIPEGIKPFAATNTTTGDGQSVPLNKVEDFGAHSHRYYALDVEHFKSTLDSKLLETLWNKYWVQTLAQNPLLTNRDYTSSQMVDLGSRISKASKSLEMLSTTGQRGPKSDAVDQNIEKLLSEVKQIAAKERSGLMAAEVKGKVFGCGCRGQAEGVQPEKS

T2: Flag-CSN-5D140N (N. crassa) (UniProt Q7RXX8)
T2 sequence: T1 sequence with D140N

T3: Flag-CSN-5H127A (N. crassa) (UniProt Q7RXX8)
T3 sequence: T1 sequence with H127A

T4: Flag-CSN-5H129A (N. crassa) (UniProt Q7RXX8)
T4 sequence: T1 sequence with H129A

T5: Myc-His-CSN-5H129A (N. crassa) (UniProt Q7RXX8)
T5 sequence: T1 sequence with H129A

T6: Myc-His-CSN-5D140N (N. crassa) (UniProt Q7RXX8)
T6 sequence: T1 sequence with D140N

B1: Myc-tagged CSN-6 (protein, UniProt Q7S8C8 1-497)
chain: MAAATVNPLMSTLKSDSSLQVALHPLPILEISDYITRSYLRGYKGAIVGALIGQQNGRQITIEHSFSVKTEHTGQNYKVDSEWFTARLDQMKAVHKDRALDFVGWYTLVPKSGPTDAHLPIHSYFYSQNESAVLLGFHIHEILNPVAGDPLPLTIYESNLEIVDGTEASTVEVEGEDREMKDVTAEPSRSIKFRELPYTTETGEAEMIALEFVREGGSANVTTTATNITATEDEGSDKPLMKKVVDTNKGSKRRAVSSDDAAAEAPTTSSAAKGTATDKNRDANLTKAELDYMSALQAKYNAVQMMKKRLDTVISYLQRLPPDYLSSGDASSQQQQQQQQQQQTEGLDQPQYTVPSNKILRQIQALVTNVQLVMSNSTSGQGQGQGERDTDLGALEKELLKETNDVKLVELIADLMSSVKDMKEVGKKFHVVETAKNSKRREQASHGGGERFNPHHPYPGGGGGSSMMREHAGLVGEGSASGSGGSGPAGDLARFDH
B2: CSN-1 (protein, UniProt Q7RXQ1 1-425)
chain: MDDRKLAFFTAIEDQGGVIVKGRTRFERLFHIGRSSVPLCVDALKAAVQEAKAGSDILRYQMAVNSLFQAAPNEPEALLDKAWMESKEKENRDTTAHLQAELQGYKNNLIKESIRMGNEDLGKHFEAIGDVEAAMDSFWKMRTEVSSTEQLVDLGKLLVRVAIERRDWKSIGNHLKPLNSVNDSDPKAKALKTYSKIANGIAALGQERYKEAAFCFVEASSGVPPEIYNQIASPNDVAIYGGLLALATMDRHELQANLLDNDSFREFLQREPHIRRAITQFVNGRYAACIEILESYRPDYLLDIYLQKHVPKLYADIRTKSIVQYLKPFSCVRLDTMQKAFNGPGPSIEDELFTMIKDGKLNARIDAINKSKALQTLENYEKQALDRIRRMNIMAADLEVKGSRKPGGMNDIPFSMTTDDTVSLA
B3: CSN-2 (protein, UniProt Q7SI58 1-490)
chain: MSDDDFMQDSDQEYDFEYEDDEEEDTGDVDIENKYYNAKQTKTSDPEEALQEFLSIPPLEQEKGDWGFKALKQAIKLEFKLKRYQEATEHYEELLTYVKSAVTRNYSEKSIDNMLNYIEKGYDDPKAVQCIEKFYSLTLQCFQSTNNERLWLKTNIKLARLLLDRKDYHAVARKLRELHNACRKSDGTDDPSKGTYSLEIYALEIQMYSETRNNNQLKVLYQKALKVRSAVPHPKIQGVIRECGGKMHMSEENWKEAQSDFFEAFRNYDEAGDLRRIQVLKYLLLTTMLMKSDINPFDSQEMKPYRNDPRIFAMTELVDAYQRDDIYRYEDVLQKNTDLLADPFIAENIDEVTRNMRTKGVVKLIAPYTRMRISWLAERLRITEPEVMDILSFLIVDGRVKGRIDEHKGVLELESREDADHVQAITVLSEAVGNLFNAVFKSTDGFQPGQGDFMNSMADQSADIGSLDDTMRSMGSGKRGRRVGLTQRAY
B4: CSN-3 (protein, UniProt Q7S7G7 1-497)
chain: MDARLTVLTAFPPAAGIDNEEYYQNSQQHAKRVRELVRDNAQWIRESADDILKHVNPAVYSLSYLMILEFLLQSPGWTSQQAHESLASYMAQFFLQFDARQIRCKGSTWSDVLKEAYSERGLFPASVAVELVTAALLRLDPSGSIITSHHCNLVELAYNTGNVGALLPLIEKPIIYMPAKGMSTAQPLCDMSLPPPAYINPDSQLTDALTSAAVLQYDFLCGLCFIERRMWQQAFDAFERCVTYPTRDGGCSKIMTEAYNKWILVGLLLTGKPPTLPETTSQAAKKIFATQGKPYKLFAQAFKSETAGDLVREFEVINSELLPNEGNVELAKLVLAHYQRWQIINLRNIYTNISLEKIQERTQSAETGAPLPTVEAVDQLVQSMIADGSLQGAIERPKDGSPAYLTFLSSPAQGMSEVEFSAQVNKVMQGIKALEPIIEATNKRLASNREYISHTVKRQFDAAREHKLGLQSAGGGFEESSFHIEEEEDLMSGLPAH
B5: CSN-4 (protein, UniProt Q7S0P8 1-440)
chain: MVSSEVRDLLAQVPNWSQADRPAAFRTIITTITSSPDPSHFAADLKAVTDAIFLESLGVVATRALVIDLIDALKSLASGGPSADSINSTTSSIWLDVGKAIQQHIQSNPTLATSLVDQTATIYEELLAAAHESQNSFTDAAKTLAAIPLDSSQRRVTDKYKADLWIRIIRNYLEDDDATSAETYLNKLKNIIHNVADDNPVLNLHFKLSAARIQDSNRQFLAASQSYYEISLSPAIAEEERLHTLSMAIKCAVLAPAGPPRSRVLARLYKDERSASLEEFGILEKMFLDRLLARAEVEKFAQGLAPHQLATTSDGSTVLAKAMVEHNLLAVSRLYRNIGFDALGSWLGLDSGNKAEEITARMIEQGRLAGSIDQIDRIIYFESGLEASGEKGSGRAEVPVGKEMRRQDGMVQALAEDLERITDDLLVEFPQLVPAGVPGN
B6: CSN-6 (endogenous) (protein, UniProt Q7S8C8 1-497)
chain: B1 chain

Legend:
[1] = biological target: T1, Flag-tagged CSN-5 (N. crassa); experiment: co-IP; Flag antibody immunoprecipitation from csn-5^KO strains co-expressing Myc-CSN-6 and Flag-CSN-5 versions; western blot with c-Myc antibody
[2] = biological target: T2, Flag-CSN-5D140N (N. crassa); experiment: as above
[3] = biological target: T3, Flag-CSN-5H127A (N. crassa); experiment: as above
[4] = biological target: T4, Flag-CSN-5H129A (N. crassa); experiment: as above
[5] = biological target: T5, Myc-His-CSN-5H129A (N. crassa); experiment: two-step affinity purification, silver-stained SDS-PAGE; Myc-His-CSN-5 versions from csn-5^KO strains purified on a nickel column, then immunoprecipitated with c-Myc antibody agarose; protein profile on a silver-stained gel, bands of these samples not analysed by mass spectrometry
[6] = biological target: T6, Myc-His-CSN-5D140N (N. crassa); experiment: as above

Binder	binding [1]	binding [2]	binding [3]	binding [4]	binding [5]	binding [6]
B1	binds	binds	binds	binds		
B2					binds	binds
B3					binds	binds
B4					binds	binds
B5					binds	binds
B6					binds	binds
